Drug screen on melanoma cell lines: apoptosis marker

From a melanoma drug combination screen (doi:10.1371/journal.pone.0140310); values rounded.

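The test systems are human melanoma cell lines, treated with a pair of drugs for 72 h and then stained and imaged. Values are the share of nuclei positive for cleaved PARP as a percentage of the same share in the DMSO control: 100 is the control level, higher means more apoptosis. Concentrations were fixed for each drug; these are the higher of two levels. These are primary screening values without error estimates. Basal and induced levels differ widely between cell lines.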 This is part of the screen, not chosen by result. An entry leaves out what has no value listed here. A dash means that no value is listed here.

Every entry is a combination with RKI-983 at 2 µM: C[C@@H](N)c1ccc(C(=O)Nc2ccnc3[nH]ccc23)cc1

Partner,COLO 800,C32,IST-MEL1,COLO 829,MZ2-MEL,SK-MEL-2,MeWo
C=C(c1ccc(C(=O)O)cc1)c1cc2c(cc1C)C(C)(C)CCC2(C)C at 10 µM,93.3,793,76.0,213,558,213,96.4
C[C@@H](Oc1cc(-c2cnn(C3CCNCC3)c2)cnc1N)c1c(Cl)ccc(F)c1Cl at 1 µM,138,232,67.5,148,-,460,260
N.N.[Cl][Pt][Cl] at 8 µM,87.5,302,168,95.8,269,191,242
CCCCCCCCCCCC1=C(O)C(=O)C=C(O)C1=O at 6 µM,100,98.7,234,109,665,428,243
Cn1cc(/C=C2\C(=O)Nc3cccnc32)c2ccccc21 at 2 µM,46.8,101,75.8,89.3,358,28.2,443
COc1cc(Nc2ncc(F)c(Nc3ccc4c(n3)NC(=O)C(C)(C)O4)n2)cc(OC)c1OC at 2 µM,288,650,122,66.1,339,218,403
Cn1cc(C2=C(c3cn(C4CCN(Cc5ccccn5)CC4)c4ccccc34)C(=O)NC2=O)c2ccccc21 at 4 µM,85.3,98.1,151,115,195,246,189
NC(=O)Nc1cc(-c2cccc(F)c2)sc1C(=O)N[C@H]1CCCNC1 at 0.1 µM,205,850,131,189,482,226,204
CCc1ccc(CCOc2ccc(CC3SC(=O)NC3=O)cc2)nc1 (stereo not drawn) at 10 µM,71.0,112,53.7,124,163,149,320
CNC(=O)c1cc(Oc2ccc(NC(=O)Nc3ccc(Cl)c(C(F)(F)F)c3)cc2)ccn1 at 2 µM,50.4,249,97.8,63.0,570,165,207
CS(=O)(=O)CCNCc1ccc(-c2ccc3ncnc(Nc4ccc(OCc5cccc(F)c5)c(Cl)c4)c3c2)o1 at 4 µM,141,198,120,72.0,949,364,383
O=C(Nc1ccccc1)c1cc([N+](=O)[O-])ccc1Cl at 10 µM,223,107,59.0,154,333,86.0,269
O=C1NC(=O)/C(=C/c2ccc(-c3ccc(F)cc3O)o2)S1 at 5 µM,139,120,90.8,48.7,256,199,359
CCN(CC)CCNC(=O)c1c(C)[nH]c(/C=C2\C(=O)Nc3ccc(F)cc32)c1C at 2 µM,210,235,60.5,130,-,35.5,101
CN(c1ncccc1CNc1nc(Nc2ccc3c(c2)CC(=O)N3)ncc1C(F)(F)F)S(C)(=O)=O at 0.4 µM,136,1630,63.0,165,-,453,174
CC[C@]1(O)C[C@H]2CN(CCc3c([nH]c4ccccc34)[C@@](C(=O)OC)(c3cc4c(cc3OC)N(C=O)[C@H]3[C@@](O)(C(=O)OC)[C@H](OC(C)=O)[C@]5(CC)C=CCN6CC[C@]43[C@@H]65)C2)C1 at 0.0005 µM,702,223,826,209,1000,1860,1550
COc1ccc(-c2ccc3c(N4CCOCC4)nc(N4C[C@@H](C)O[C@@H](C)C4)nc3n2)cc1CO at 0.1 µM,129,94.6,82.5,162,532,99.6,269
CCN(CC)CCCCNc1ncc2cc(-c3cc(OC)cc(OC)c3)c(NC(=O)NC(C)(C)C)nc2n1 at 0.5 µM,49.6,106,72.8,202,354,129,339
Cc1ccc(Nc2nccc(N(C)c3ccc4c(C)n(C)nc4c3)n2)cc1S(N)(=O)=O at 2 µM,62.6,113,135,112,276,154,210
O=C(/C=C/c1cccnc1)NCCCCC1CCN(C(=O)c2ccccc2)CC1 at 0.05 µM,84.0,321,122,826,5930,5330,177
NC(=O)c1ccc(N(C(N)=O)c2c(F)cccc2F)nc1-c1ccc(F)cc1F at 2 µM,217,368,140,86.1,235,141,147
CS(=O)(=O)c1ccc(C(=O)Nc2ccc(Cl)c(-c3ccccn3)c2)c(Cl)c1 at 5 µM,122,705,99.3,156,364,248,263
Cn1nnc2c(C(N)=O)ncn2c1=O at 10 µM,161,210,69.3,53.2,-,111,167
N#CC[C@H](C1CCCC1)n1cc(-c2ncnc3[nH]ccc23)cn1 at 5 µM,90.4,54.8,132,93.7,277,99.2,339
CCCS(=O)(=O)Nc1ccc(F)c(C(=O)c2c[nH]c3ncc(Cl)cc23)c1F at 0.4 µM,143,990,52.5,179,394,326,130
Cn1cnc2c(F)c(Nc3ccc(Br)cc3Cl)c(C(=O)NOCCO)cc21 at 0.075 µM,237,144,70.1,75.0,589,150,261
CCCCCCCCc1ccc(CCC(N)(CO)CO)cc1 at 10 µM,26.7,278,412,104,6110,4900,2070
O=C(O)C(=O)Nc1sc2c(c1C(=O)O)CCNC2 at 8.33 µM,200,177,112,131,187,136,117
Clc1ccc(Nc2nnc(Cc3ccncc3)c3ccccc23)cc1 at 10 µM,107,1260,45.9,146,966,111,220
C/C(O)=C(\C#N)C(=O)Nc1cc(Br)ccc1Br at 10 µM,188,109,65.1,59.1,270,210,151
Cc1nc(Nc2ncc(C(=O)Nc3c(C)cccc3Cl)s2)cc(N2CCN(CCO)CC2)n1 at 0.02 µM,79.3,809,195,94.8,407,205,129
COc1cc2c(Oc3ccc4[nH]c(C)cc4c3F)ncnc2cc1OCCCN1CCCC1 at 2 µM,129,847,32.0,166,162,116,214
CC(C)C[C@H](NC(=O)[C@H](Cc1ccccc1)NC(=O)c1cnccn1)B(O)O at 0.005 µM,102,1450,282,4020,16500,745,5100
Cn1c(=O)n(-c2ccc(C(C)(C)C#N)cc2)c2c3cc(-c4cnc5ccccc5c4)ccc3ncc21 at 0.02 µM,54.9,341,122,186,482,85.1,167
CO[C@H]1C[C@@H]2CC[C@@H](C)[C@@](O)(O2)C(=O)C(=O)N2CCCC[C@H]2C(=O)O[C@H]([C@H](C)C[C@@H]2CC[C@@H](OCCO)[C@H](OC)C2)CC(=O)[C@H](C)/C=C(\C)[C@@H](O)[C@@H](OC)C(=O)[C@H](C)C[C@H](C)/C=C/C=C/C=C/1C at 0.1 µM,85.8,166,143,200,312,394,70.3
C=CCn1c(=O)c2cnc(Nc3ccc(N4CCN(C)CC4)cc3)nc2n1-c1cccc(C(C)(C)O)n1 at 0.1 µM,64.8,83.9,113,79.8,493,257,177

For reference, 3 entries once more:

* NC(=O)c1ccc(N(C(N)=O)c2c(F)cccc2F)nc1-c1ccc(F)cc1F at 2 µM : COLO 800: 217; C32: 368; IST-MEL1: 140; COLO 829: 86.1; MZ2-MEL: 235; SK-MEL-2: 141; MeWo: 147
* C=C(c1ccc(C(=O)O)cc1)c1cc2c(cc1C)C(C)(C)CCC2(C)C at 10 µM : COLO 800: 93.3; C32: 793; IST-MEL1: 76.0; COLO 829: 213; MZ2-MEL: 558; SK-MEL-2: 213; MeWo: 96.4
* CC[C@]1(O)C[C@H]2CN(CCc3c([nH]c4ccccc34)[C@@](C(=O)OC)(c3cc4c(cc3OC)N(C=O)[C@H]3[C@@](O)(C(=O)OC)[C@H](OC(C)=O)[C@]5(CC)C=CCN6CC[C@]43[C@@H]65)C2)C1 at 0.0005 µM : COLO 800: 702; C32: 223; IST-MEL1: 826; COLO 829: 209; MZ2-MEL: 1000; SK-MEL-2: 1860; MeWo: 1550